Results from article doi:10.1101/617910.
These are yes or no findings as the source states them, for the method shown. Some results given as binding are weak or reduced against the parent protein; the word gives no strength.

Amino acid sequences for entries named in this document (tags omitted).
UniProt P0CX27: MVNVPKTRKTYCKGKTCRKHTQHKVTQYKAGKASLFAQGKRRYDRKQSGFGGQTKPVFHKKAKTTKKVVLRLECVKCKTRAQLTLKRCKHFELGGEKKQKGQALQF
UniProt P41819: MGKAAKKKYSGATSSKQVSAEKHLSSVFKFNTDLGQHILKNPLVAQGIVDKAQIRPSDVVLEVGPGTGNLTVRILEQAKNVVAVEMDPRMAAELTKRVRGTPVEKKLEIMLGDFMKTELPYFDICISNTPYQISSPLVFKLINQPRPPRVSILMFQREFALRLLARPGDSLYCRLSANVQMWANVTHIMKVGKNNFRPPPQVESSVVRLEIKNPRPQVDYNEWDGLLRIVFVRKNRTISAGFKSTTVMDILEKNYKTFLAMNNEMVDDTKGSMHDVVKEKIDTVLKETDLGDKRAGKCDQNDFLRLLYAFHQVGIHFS

Molecular target: Rpl42 (yeast (endogenous in the purified pre-ribosomes)) (UniProt P0CX27)
Experiment: cryo-EM structure

- binding: binds
Substance: Dim1 (from UniProt P41819 1-318)
